Test results published in US10131679B2, “Substituted dihydropyrrolopyrazole compound” (UBE INDUSTRIES, LTD., priority 2014, dated 2018).
Some of these results come from one statement about several compounds together.

Test system: human large intestine cancer cell line (HCT-116)
Test: Tumor growth inhibition test in mice subcutaneously transplanted with HCT-116 cells
Type: in vivo
Conditions: 100 mg/kg orally once a day, day 0 to day 3; tumor measured on day 4; HCT-116 subcutaneous xenograft in BALB/c-nu/nu mice; solvent control increase = 100%

Which “rate of suppression of tumor volume (rate of inhibition)” value (“rate … (rate of inhibition)” for short) does the source give for `CC(C)(O)[C@@H](NC(=O)N1Cc2c(NC(=O)C3([Si](C)(C)C)CC3)n[nH]c2C1(C)C)c1ccccc1` [III-170, (S)—N-(2-Hydroxy-2-methyl-1-phenylpropyl)-6,6-dimethyl-3-[1-(trimethylsilyl)cyclopropanecarboxamido]-4,6-dihydropyrrolo[3,4-c]pyrazole-5(1H)-carboxamide] here?
Its value is at least 50%.

How did the “rate … (rate of inhibition)” value turn out when `CC1(C)c2[nH]nc(NC(=O)C3([Si](C)(C)C)CCC3)c2CN1C(=O)C(CO)c1ccccc1` (stereo not drawn) [IV-632, N-[5-(3-Hydroxy-2-phenylpropanoyl)-6,6-dimethyl-1,4,5,6-tetrahydropyrrolo[3,4-c]pyrazol-3-yl]-1-(trimethylsilyl)cyclobutanecarboxamide] was run?
Its value is at least 50%.

For `CC(C)(O)C[C@@H](NC(=O)N1Cc2c(NC(=O)C3([Si](C)(C)C)CCC3)n[nH]c2C1(C)C)c1ccccc1` [IV-299, (R)—N-(3-Hydroxy-3-methyl-1-phenylbutyl)-6,6-dimethyl-3-[1-(trimethylsilyl)cyclobutanecarboxamido]-4,6-dihydropyrrolo[3,4-c]pyrazole-5(1H)-carboxamide], which “rate … (rate of inhibition)” value is on record?
The value was at least 50%.

With `CC(C)(O)[C@@H](NC(=O)N1Cc2c(NC(=O)C3([Si](C)(C)C)CCC3)n[nH]c2C1(C)C)c1ccccc1` [IV-171, (S)—N-(2-Hydroxy-2-methyl-1-phenylpropyl)-6,6-dimethyl-3-[1-(trimethylsilyl)cyclobutanecarboxamido]-4,6-dihydropyrrolo[3,4-c]pyrazole-5(1H)-carboxamide] as the compound, how does the “rate … (rate of inhibition)” value read?
Its value is at least 50%.

Test system: rat adjuvant arthritis model
Test: Paw edema suppression test in rat adjuvant arthritis model
Type: in vivo, LEW rats
Conditions: oral administration once a day day 0 to day 27, 10 mg/kg

How did the “rate of suppression of edema” value turn out when `CC1(C)c2[nH]nc(NC(=O)C3([Si](C)(C)C)CCC3)c2CN1C(=O)N[C@H](CO)c1ccccc1` [IV-114, (S)—N-(2-Hydroxy-1-phenylethyl)-6,6-dimethyl-3-[1-(trimethylsilyl)cyclobutanecarboxamido]-4,6-dihydropyrrolo[3,4-c]pyrazole-5(1H)-carboxamide] was run?
Its value is at least 50%.

With `CC(C)(O)[C@@H](NC(=O)N1Cc2c(NC(=O)C3([Si](C)(C)C)CCC3)n[nH]c2C1(C)C)c1ccccc1` [IV-171, (S)—N-(2-Hydroxy-2-methyl-1-phenylpropyl)-6,6-dimethyl-3-[1-(trimethylsilyl)cyclobutanecarboxamido]-4,6-dihydropyrrolo[3,4-c]pyrazole-5(1H)-carboxamide] as the compound, how does the “rate of suppression of edema” value read?
Its value is at least 50%.
